In the supplement of paper PMC6078165:

Test system: MDAMB231
Experiment: relative JC-1 red fluorescence (viability) vs pre-drug, coculture with fibroblast (fraction); higher = more viable cancer cells
Procedure: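 JC-1 labelled TNBC cells cocultured 1:1 (1,500 cells each) with CellTrace Violet stained primary or stromal fibroblasts in 384-well plates in FluoroBrite medium, treated with one of 42 anticancer drugs at 0.1, 1, 10 or 100 uM. JC-1 red fluorescence (mitochondrial integrity in cancer cells only) was read by plate reader every 8 h for 72 h. Values are normalised to each well's pre-drug value. The stock of one drug was tenfold lower, so its dose labels may be too high.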

CS(=O)(=O)CCNCc1ccc(-c2ccc3ncnc(Nc4ccc(OCc5cccc(F)c5)c(Cl)c4)c3c2)o1 [Lapatinib]
relative JC-1 red fluorescence
Details | 8 h | 16 h | 24 h | 32 h | 40 h | 48 h | 56 h | 64 h | 72 h
0.1 µM, coculture fibroblast: C12385 | 0.7716 ± 0.0062 | 0.7579 ± 0.0067 | 0.6606 ± 0.00091 | 0.6628 ± 0.0045 | 0.612 ± 0.015 | 0.582 ± 0.012 | 0.537 ± 0.01 | 0.528 ± 0.011 | 0.505 ± 0.015
0.1 µM, coculture fibroblast: H6013 | 0.893 ± 0.026 | 0.838 ± 0.017 | 0.7765 ± 0.0075 | 0.766 ± 0.011 | 0.7274 ± 0.0059 | 0.684 ± 0.029 | 0.673 ± 0.013 | 0.644 ± 0.012 | 0.606 ± 0.02
0.1 µM, coculture fibroblast: H6019 | 0.796 ± 0.012 | 0.743 ± 0.033 | 0.751 ± 0.047 | 0.746 ± 0.061 | 0.719 ± 0.074 | 0.708 ± 0.074 | 0.667 ± 0.066 | 0.67 ± 0.063 | 0.637 ± 0.07
0.1 µM, coculture fibroblast: H6076 | 0.9211 ± 0.002 | 0.826 ± 0.0094 | 0.779 ± 0.0055 | 0.7604 ± 0.0072 | 0.729 ± 0.019 | 0.695 ± 0.022 | 0.667 ± 0.032 | 0.648 ± 0.043 | 0.629 ± 0.046
0.1 µM, coculture fibroblast: H6231 | 0.9722 ± 0.0039 | 0.89 ± 0.018 | 0.802 ± 0.042 | 0.734 ± 0.05 | 0.687 ± 0.053 | 0.646 ± 0.067 | 0.603 ± 0.078 | 0.579 ± 0.087 | 0.546 ± 0.093
0.1 µM, coculture fibroblast: HADF | 0.93 ± 0.057 | 0.924 ± 0.096 | 0.862 ± 0.11 | 0.843 ± 0.12 | 0.802 ± 0.11 | 0.73 ± 0.07 | 0.725 ± 0.082 | 0.708 ± 0.071 | 0.665 ± 0.065
0.1 µM, coculture fibroblast: HCFa | 0.907 ± 0.012 | 0.847 ± 0.027 | 0.815 ± 0.04 | 0.787 ± 0.026 | 0.754 ± 0.046 | 0.713 ± 0.027 | 0.684 ± 0.016 | 0.668 ± 0.023 | 0.625 ± 0.015
0.1 µM, coculture fibroblast: HCPF | 0.927 ± 0.011 | 0.831 ± 0.018 | 0.76 ± 0.012 | 0.733 ± 0.022 | 0.672 ± 0.03 | 0.628 ± 0.035 | 0.582 ± 0.043 | 0.548 ± 0.051 | 0.521 ± 0.05
0.1 µM, coculture fibroblast: HHSteC | 0.92359 ± 0.00091 | 0.8955 ± 0.005 | 0.851 ± 0.014 | 0.817 ± 0.015 | 0.76 ± 0.0084 | 0.722 ± 0.0096 | 0.6767 ± 0.0061 | 0.6527 ± 0.0061 | 0.615 ± 0.013
0.1 µM, coculture fibroblast: HMF | 0.895 ± 0.01 | 0.8241 ± 0.002 | 0.771 ± 0.0084 | 0.742 ± 0.019 | 0.69 ± 0.015 | 0.665 ± 0.026 | 0.62 ± 0.034 | 0.611 ± 0.032 | 0.59 ± 0.038
0.1 µM, coculture fibroblast: HPFa | 0.9419 ± 0.0093 | 0.905 ± 0.021 | 0.8402 ± 0.0084 | 0.7898 ± 0.0033 | 0.7664 ± 0.0051 | 0.7225 ± 0.005 | 0.6729 ± 0.0047 | 0.6431 ± 0.0047 | 0.5918 ± 0.0049
0.1 µM, coculture fibroblast: HUF | 0.8389 ± 0.0023 | 0.751 ± 0.015 | 0.7523 ± 0.0013 | 0.6491 ± 0.0029 | 0.597 ± 0.012 | 0.582 ± 0.029 | 0.529 ± 0.043 | 0.516 ± 0.059 | 0.493 ± 0.063
0.1 µM, coculture fibroblast: Hs5 | 0.936 ± 0.011 | 0.87 ± 0.017 | 0.807 ± 0.025 | 0.766 ± 0.012 | 0.714 ± 0.016 | 0.652 ± 0.012 | 0.604 ± 0.024 | 0.568 ± 0.028 | 0.528 ± 0.025
0.1 µM, coculture fibroblast: Hs27A | 0.8678 ± 0.0076 | 0.8206 ± 0.0066 | 0.781 ± 0.03 | 0.766 ± 0.037 | 0.719 ± 0.035 | 0.645 ± 0.042 | 0.657 ± 0.033 | 0.632 ± 0.04 | 0.587 ± 0.04
0.1 µM, coculture fibroblast: Hs343T | 0.884 ± 0.029 | 0.779 ± 0.033 | 0.699 ± 0.011 | 0.665 ± 0.0065 | 0.609 ± 0.012 | 0.556 ± 0.026 | 0.503 ± 0.023 | 0.474 ± 0.034 | 0.446 ± 0.046
0.1 µM, coculture fibroblast: WS1 | 0.7558 ± 0.0012 | 0.7272 ± 0.0044 | 0.632 ± 0.0092 | 0.621 ± 0.012 | 0.582 ± 0.0014 | 0.5517 ± 0.0034 | 0.508 ± 0.015 | 0.499 ± 0.015 | 0.469 ± 0.013
1 µM, coculture fibroblast: C12385 | 0.812 ± 0.014 | 0.7914 ± 0.0054 | 0.691 ± 0.05 | 0.728 ± 0.022 | 0.667 ± 0.035 | 0.544 ± 0.17 | 0.515 ± 0.17 | 0.515 ± 0.16 | 0.503 ± 0.16
1 µM, coculture fibroblast: H6013 | 0.92352 ± 0.00053 | 0.925 ± 0.018 | 0.901 ± 0.035 | 0.903 ± 0.051 | 0.879 ± 0.035 | 0.851 ± 0.043 | 0.845 ± 0.028 | 0.826 ± 0.043 | 0.787 ± 0.047
1 µM, coculture fibroblast: H6019 | 0.846 ± 0.014 | 0.829 ± 0.023 | 0.8109 ± 0.0068 | 0.796 ± 0.013 | 0.7786 ± 0.0074 | 0.779 ± 0.018 | 0.764 ± 0.018 | 0.755 ± 0.016 | 0.729 ± 0.02
1 µM, coculture fibroblast: H6076 | 0.9476 ± 0.0061 | 0.88 ± 0.018 | 0.847 ± 0.021 | 0.824 ± 0.036 | 0.797 ± 0.057 | 0.758 ± 0.059 | 0.752 ± 0.078 | 0.731 ± 0.085 | 0.71 ± 0.08
1 µM, coculture fibroblast: H6231 | 0.92853 ± 0.00084 | 0.8347 ± 0.0077 | 0.791 ± 0.0087 | 0.759 ± 0.011 | 0.701 ± 0.016 | 0.6712 ± 0.0045 | 0.647 ± 0.011 | 0.6247 ± 0.0051 | 0.585 ± 0.0085
1 µM, coculture fibroblast: HADF | 0.879 ± 0.019 | 0.8633 ± 0.0022 | 0.8339 ± 0.0078 | 0.808 ± 0.01 | 0.782 ± 0.023 | 0.755 ± 0.036 | 0.755 ± 0.039 | 0.74 ± 0.033 | 0.705 ± 0.039
1 µM, coculture fibroblast: HCFa | 0.919 ± 0.018 | 0.8957 ± 0.0032 | 0.8763 ± 0.0014 | 0.854 ± 0.0098 | 0.838 ± 0.01 | 0.8 ± 0.028 | 0.789 ± 0.04 | 0.759 ± 0.047 | 0.719 ± 0.047
1 µM, coculture fibroblast: HCPF | 0.928 ± 0.013 | 0.8563 ± 0.0015 | 0.825 ± 0.015 | 0.81 ± 0.018 | 0.757 ± 0.031 | 0.724 ± 0.027 | 0.702 ± 0.024 | 0.676 ± 0.029 | 0.66 ± 0.04
1 µM, coculture fibroblast: HHSteC | 0.9313 ± 0.0011 | 0.924 ± 0.012 | 0.898 ± 0.022 | 0.864 ± 0.0097 | 0.837 ± 0.019 | 0.8 ± 0.01 | 0.762 ± 0.015 | 0.737 ± 0.019 | 0.705 ± 0.0084
1 µM, coculture fibroblast: HMF | 0.954 ± 0.021 | 0.891 ± 0.029 | 0.86 ± 0.026 | 0.832 ± 0.025 | 0.793 ± 0.022 | 0.764 ± 0.024 | 0.745 ± 0.027 | 0.723 ± 0.02 | 0.696 ± 0.01
1 µM, coculture fibroblast: HPFa | 0.982 ± 0.02 | 0.956 ± 0.04 | 0.916 ± 0.051 | 0.881 ± 0.07 | 0.867 ± 0.066 | 0.832 ± 0.064 | 0.783 ± 0.06 | 0.752 ± 0.058 | 0.709 ± 0.069
1 µM, coculture fibroblast: HUF | 0.92 ± 0.032 | 0.861 ± 0.02 | 0.858 ± 0.091 | 0.788 ± 0.074 | 0.728 ± 0.087 | 0.717 ± 0.12 | 0.67 ± 0.12 | 0.657 ± 0.14 | 0.633 ± 0.15
1 µM, coculture fibroblast: Hs5 | 0.844 ± 0.062 | 0.907 ± 0.1 | 0.867 ± 0.093 | 0.828 ± 0.1 | 0.781 ± 0.077 | 0.722 ± 0.072 | 0.709 ± 0.067 | 0.668 ± 0.052 | 0.65 ± 0.051
1 µM, coculture fibroblast: Hs27A | 0.9295 ± 0.0027 | 0.923 ± 0.016 | 0.889 ± 0.014 | 0.867 ± 0.023 | 0.827 ± 0.029 | 0.752 ± 0.023 | 0.779 ± 0.03 | 0.755 ± 0.029 | 0.706 ± 0.03
1 µM, coculture fibroblast: Hs343T | 0.937 ± 0.0099 | 0.85 ± 0.0089 | 0.8142 ± 0.0074 | 0.7799 ± 0.0054 | 0.738 ± 0.0081 | 0.6986 ± 0.0058 | 0.667 ± 0.0024 | 0.648 ± 0.012 | 0.626 ± 0.017
1 µM, coculture fibroblast: WS1 | 0.784 ± 0.027 | 0.7843 ± 0.0018 | 0.648 ± 0.043 | 0.699 ± 0.026 | 0.66 ± 0.031 | 0.623 ± 0.035 | 0.583 ± 0.031 | 0.564 ± 0.027 | 0.537 ± 0.027

± gives the standard deviation of the averaged measurements. The reference is the same well before dosing, and untreated signal decays as well.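 Fibroblast labels denote human fibroblasts, mainly primary ones from uterus (C12385, HUF), lung (H6013), bone (Hs27A), adrenal (HADF) and skin (WS1), plus mammary HMF and breast cancer-associated Hs343T. Cancer cells are basal-like or mesenchymal-like triple-negative breast cancer lines. A hit is a response shift exceeding 3x replicate standard deviation. The tissue of the other fibroblasts is not given here.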
